From the supplement of paper PMC10735217
Some of the results follow. This data set is noisy: repeats of one test often differ as much as different tests do.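 Human kidney-derived cells stably carry a construct in which eight TEAD-binding elements drive luciferase, measured by luminescence in a drug-repurposing library screen. A hit is any compound whose signal exceeds the plate mean by more than five robust Z scores.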

Test system: HEK293A TEAD-LUC reporter
Assay: TEAD-luciferase reporter activity (YAP activation), robust Z score vs plate; higher = stronger YAP/TEAD activation
Settings: 24 h

| SMILES | TEAD-luciferase reporter activity (compound concentration: 200 nM) | TEAD-luciferase reporter activity (compound concentration: 2 uM) | TEAD-luciferase reporter activity (compound concentration: 10 uM) |
| --- | --- | --- | --- |
| CCOc1ccc(NC(=O)CN)cc1 | inactive: -1.22 | inactive: -1.19 | inactive: 0.0779 |
| O=C1OC2(c3ccc(O)cc3Oc3cc(O)ccc32)c2ccccc21 [Fluorescein sodium] | inactive: -0.638 | inactive: -0.279 | inactive: -1.51 |
| COc1ccc(Cn2c(C)nc3c(C)nc(Cl)nc32)cc1OC1CCCC1 | inactive: 1.08 | inactive: -1.14 | inactive: -1.36 |
| NS(=O)(=O)c1cc(Cl)c(Cl)c(S(N)(=O)=O)c1 [Diclofenamide] | inactive: -0.0742 | inactive: 0.309 | inactive: -0.664 |
| CNCC/C=C1\c2ccccc2CC(O)c2ccccc21 (stereo unspecified) | inactive: 0.861 | inactive: -1.95 | active: 8.72 |
| CN(C)Cc1cc(F)ccc1Sc1cccc(O)c1 | inactive: -0.885 | inactive: -1.39 | inactive: -0.54 |
| CC1(C)OC2COC3(COS(N)(=O)=O)OC(C)(C)OC3C2O1 (stereo unspecified) [topiramate ER, Upsher-Smith] | inactive: -1.31 |  | inactive: -0.12 |
| CC1(C)OC2COC3(COS(N)(=O)=O)OC(C)(C)OC3C2O1 (stereo unspecified) [topiramate ER] |  | inactive: -1.06 |  |
| N#Cc1ccc(-c2ccc(S(=O)(=O)Nc3cccc(N)n3)cc2)cc1 | inactive: -1.12 | inactive: -1.23 | inactive: -0.0864 |
| COc1ccc(C#N)cc1C(=O)NCCN1CCC(C(=O)c2ccc(F)cc2)CC1 [prideperone] | inactive: -2.24 | inactive: -0.828 | inactive: 1.07 |
| COc1ccc(C(=O)N2CCC(N3CCCC3=O)CC2)cc1 | inactive: -0.437 |  | inactive: -1.42 |
| COc1ccc2cc1Oc1ccc(cc1)C[C@H]1c3cc(c(OC)cc3CCN1C)Oc1c(OC)c(OC)cc3c1[C@H](C2)N(C)CC3 [Hanfangchin A] |  | inactive: 0.186 |  |
| COc1ccc2cc1Oc1ccc(cc1)C[C@H]1c3cc(c(OC)cc3CCN1C)Oc1c(OC)c(OC)cc3c1[C@H](C2)N(C)CC3 | inactive: -2.45 |  | inactive: -0.378 |
| COc1ncc(OC)c2c(C(=O)C(=O)N3CCN(C(=O)c4ccccc4)CC3)c[nH]c12 | inactive: -1.48 | inactive: -1.1 | inactive: 3.68 |
| COc1ccc2c(c1)N(C(=O)OC(C)C)[C@@H](CSC)C(=S)N2 | inactive: -1.08 | inactive: -0.691 | inactive: -1.85 |
| CO/N=C(/C(=O)NC1C(=O)N2C(C(=O)OCOC(=O)C(C)(C)C)=CCSC12)c1csc(NC(=O)C(C)N)n1 (stereo unspecified) [ceftizoxime alapivoxil] | inactive: -0.663 | inactive: -0.128 | inactive: -0.0332 |

Some values from the results shown:
CN(C)Cc1cc(F)ccc1Sc1cccc(O)c1 | TEAD-luciferase reporter activity (compound concentration: 10 uM): inactive: -0.54
COc1ncc(OC)c2c(C(=O)C(=O)N3CCN(C(=O)c4ccccc4)CC3)c[nH]c12 | TEAD-luciferase reporter activity (compound concentration: 200 nM): inactive: -1.48
